According to the supplement of paper PMC12067093, “Discovery and optimisation of a covalent ligand for TRIM25 and its application to targeted protein ubiquitination” (Chemical Science, 2025):
Some of the results follow.

By UniProt entry, the sequences of proteins in these tests, tags left out. Where a name states a change or a piece, a line headed by the entry shows the natural chain unless it says otherwise.
UniProt Q1KMD3: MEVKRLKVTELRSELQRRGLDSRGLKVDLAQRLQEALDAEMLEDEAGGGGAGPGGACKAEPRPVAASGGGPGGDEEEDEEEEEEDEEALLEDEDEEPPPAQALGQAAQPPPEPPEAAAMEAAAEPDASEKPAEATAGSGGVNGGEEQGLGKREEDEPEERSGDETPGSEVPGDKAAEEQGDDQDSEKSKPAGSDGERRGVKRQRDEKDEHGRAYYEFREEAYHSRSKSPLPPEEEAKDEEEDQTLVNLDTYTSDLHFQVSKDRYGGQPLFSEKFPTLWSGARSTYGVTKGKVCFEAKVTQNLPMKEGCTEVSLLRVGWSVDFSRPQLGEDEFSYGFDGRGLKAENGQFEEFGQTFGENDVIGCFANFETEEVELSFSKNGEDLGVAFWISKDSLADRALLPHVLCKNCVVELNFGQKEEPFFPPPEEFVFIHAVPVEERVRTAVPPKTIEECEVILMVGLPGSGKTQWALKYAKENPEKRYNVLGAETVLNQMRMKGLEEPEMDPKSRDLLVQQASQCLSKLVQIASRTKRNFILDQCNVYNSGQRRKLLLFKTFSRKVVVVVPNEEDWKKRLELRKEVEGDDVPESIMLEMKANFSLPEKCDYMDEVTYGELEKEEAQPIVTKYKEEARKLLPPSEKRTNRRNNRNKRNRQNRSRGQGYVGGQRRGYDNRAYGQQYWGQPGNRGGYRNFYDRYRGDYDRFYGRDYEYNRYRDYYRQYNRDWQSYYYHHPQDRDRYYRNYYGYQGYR
UniProt Q00839, whole entry, looked up: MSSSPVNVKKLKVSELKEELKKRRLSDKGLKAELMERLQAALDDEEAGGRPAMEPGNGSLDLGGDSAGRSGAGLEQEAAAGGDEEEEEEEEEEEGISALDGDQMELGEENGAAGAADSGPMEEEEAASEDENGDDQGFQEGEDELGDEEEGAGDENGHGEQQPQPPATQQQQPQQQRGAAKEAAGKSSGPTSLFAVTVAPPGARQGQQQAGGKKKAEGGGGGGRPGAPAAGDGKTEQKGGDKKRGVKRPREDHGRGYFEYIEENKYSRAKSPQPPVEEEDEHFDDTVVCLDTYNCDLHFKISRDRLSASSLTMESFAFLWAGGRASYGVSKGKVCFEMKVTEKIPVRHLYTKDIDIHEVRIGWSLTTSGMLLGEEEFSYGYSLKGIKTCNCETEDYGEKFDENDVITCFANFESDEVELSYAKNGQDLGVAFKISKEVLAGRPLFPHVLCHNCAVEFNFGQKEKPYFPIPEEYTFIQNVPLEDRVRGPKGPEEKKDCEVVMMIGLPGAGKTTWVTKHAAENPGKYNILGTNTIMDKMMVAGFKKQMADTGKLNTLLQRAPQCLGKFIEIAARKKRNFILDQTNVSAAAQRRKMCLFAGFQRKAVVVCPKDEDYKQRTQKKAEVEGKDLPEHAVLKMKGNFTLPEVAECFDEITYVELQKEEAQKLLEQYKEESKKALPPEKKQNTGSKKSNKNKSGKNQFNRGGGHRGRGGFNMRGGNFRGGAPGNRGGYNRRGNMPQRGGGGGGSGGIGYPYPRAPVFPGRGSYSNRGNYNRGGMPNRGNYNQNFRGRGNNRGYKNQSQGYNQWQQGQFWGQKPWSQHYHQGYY
UniProt P10809, whole entry, looked up: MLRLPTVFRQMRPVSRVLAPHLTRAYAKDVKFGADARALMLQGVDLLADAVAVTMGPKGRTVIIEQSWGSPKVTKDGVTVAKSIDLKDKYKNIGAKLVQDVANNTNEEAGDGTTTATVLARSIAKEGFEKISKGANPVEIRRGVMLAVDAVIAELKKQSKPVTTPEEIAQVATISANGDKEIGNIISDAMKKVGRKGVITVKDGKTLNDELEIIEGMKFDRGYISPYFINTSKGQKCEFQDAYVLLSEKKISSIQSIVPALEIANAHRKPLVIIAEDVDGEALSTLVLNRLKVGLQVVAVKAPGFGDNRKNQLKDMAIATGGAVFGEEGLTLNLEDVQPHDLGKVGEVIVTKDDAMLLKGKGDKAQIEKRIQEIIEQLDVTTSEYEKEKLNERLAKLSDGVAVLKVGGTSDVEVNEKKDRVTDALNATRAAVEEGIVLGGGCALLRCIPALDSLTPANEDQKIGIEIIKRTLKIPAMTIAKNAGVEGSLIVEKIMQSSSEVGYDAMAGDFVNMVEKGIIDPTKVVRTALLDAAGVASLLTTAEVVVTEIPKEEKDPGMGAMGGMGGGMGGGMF
UniProt P34932: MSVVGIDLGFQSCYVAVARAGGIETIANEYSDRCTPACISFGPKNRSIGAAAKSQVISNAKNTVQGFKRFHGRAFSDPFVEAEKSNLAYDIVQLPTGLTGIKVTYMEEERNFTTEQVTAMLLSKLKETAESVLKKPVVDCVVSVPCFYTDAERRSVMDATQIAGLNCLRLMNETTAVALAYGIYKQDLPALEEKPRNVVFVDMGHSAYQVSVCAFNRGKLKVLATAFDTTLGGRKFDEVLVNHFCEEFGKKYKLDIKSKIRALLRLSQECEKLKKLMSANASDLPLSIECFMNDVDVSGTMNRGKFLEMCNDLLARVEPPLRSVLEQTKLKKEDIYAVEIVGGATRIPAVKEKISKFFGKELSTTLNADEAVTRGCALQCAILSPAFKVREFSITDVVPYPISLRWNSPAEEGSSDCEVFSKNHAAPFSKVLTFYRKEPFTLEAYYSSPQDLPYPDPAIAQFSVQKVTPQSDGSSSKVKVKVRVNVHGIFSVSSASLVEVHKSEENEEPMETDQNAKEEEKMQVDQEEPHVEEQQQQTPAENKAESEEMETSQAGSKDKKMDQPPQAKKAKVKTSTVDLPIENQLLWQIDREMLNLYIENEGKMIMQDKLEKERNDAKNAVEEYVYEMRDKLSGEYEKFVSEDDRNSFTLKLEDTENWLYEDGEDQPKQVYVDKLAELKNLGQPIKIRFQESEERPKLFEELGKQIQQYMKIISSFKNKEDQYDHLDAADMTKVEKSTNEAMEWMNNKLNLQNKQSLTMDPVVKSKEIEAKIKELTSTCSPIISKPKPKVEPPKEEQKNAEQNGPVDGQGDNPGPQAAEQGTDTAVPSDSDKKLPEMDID
UniProt Q53GQ0: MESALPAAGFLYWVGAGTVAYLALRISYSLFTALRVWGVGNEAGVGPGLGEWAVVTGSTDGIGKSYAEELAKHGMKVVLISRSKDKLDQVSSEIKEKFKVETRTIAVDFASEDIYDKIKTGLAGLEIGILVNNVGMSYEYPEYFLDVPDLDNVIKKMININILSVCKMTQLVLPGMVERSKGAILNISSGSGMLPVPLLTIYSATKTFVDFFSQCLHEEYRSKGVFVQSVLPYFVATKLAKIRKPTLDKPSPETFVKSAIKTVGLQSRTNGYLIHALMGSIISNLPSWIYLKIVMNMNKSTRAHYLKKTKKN
UniProt P51991: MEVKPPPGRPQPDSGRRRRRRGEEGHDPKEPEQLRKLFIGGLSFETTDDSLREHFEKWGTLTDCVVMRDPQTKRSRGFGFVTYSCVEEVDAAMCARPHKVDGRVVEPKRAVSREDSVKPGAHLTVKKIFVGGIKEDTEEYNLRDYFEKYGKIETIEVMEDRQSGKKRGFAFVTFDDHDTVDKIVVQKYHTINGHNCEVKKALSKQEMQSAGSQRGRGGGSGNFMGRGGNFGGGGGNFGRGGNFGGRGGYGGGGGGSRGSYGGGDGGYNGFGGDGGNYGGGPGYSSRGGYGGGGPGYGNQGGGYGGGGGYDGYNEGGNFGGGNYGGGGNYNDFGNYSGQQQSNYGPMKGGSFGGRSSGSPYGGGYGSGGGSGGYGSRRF
UniProt P52597: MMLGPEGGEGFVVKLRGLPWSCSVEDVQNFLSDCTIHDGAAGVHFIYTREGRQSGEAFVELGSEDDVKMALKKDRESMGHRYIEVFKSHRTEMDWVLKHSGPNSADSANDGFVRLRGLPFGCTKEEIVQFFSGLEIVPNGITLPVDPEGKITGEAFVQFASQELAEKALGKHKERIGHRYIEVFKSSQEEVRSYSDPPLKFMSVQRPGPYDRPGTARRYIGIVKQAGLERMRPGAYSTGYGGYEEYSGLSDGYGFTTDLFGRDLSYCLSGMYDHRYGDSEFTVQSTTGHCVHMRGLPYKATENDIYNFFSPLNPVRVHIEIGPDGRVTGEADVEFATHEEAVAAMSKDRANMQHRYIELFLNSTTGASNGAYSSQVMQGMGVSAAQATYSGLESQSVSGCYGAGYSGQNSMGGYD
UniProt Q9NZL4: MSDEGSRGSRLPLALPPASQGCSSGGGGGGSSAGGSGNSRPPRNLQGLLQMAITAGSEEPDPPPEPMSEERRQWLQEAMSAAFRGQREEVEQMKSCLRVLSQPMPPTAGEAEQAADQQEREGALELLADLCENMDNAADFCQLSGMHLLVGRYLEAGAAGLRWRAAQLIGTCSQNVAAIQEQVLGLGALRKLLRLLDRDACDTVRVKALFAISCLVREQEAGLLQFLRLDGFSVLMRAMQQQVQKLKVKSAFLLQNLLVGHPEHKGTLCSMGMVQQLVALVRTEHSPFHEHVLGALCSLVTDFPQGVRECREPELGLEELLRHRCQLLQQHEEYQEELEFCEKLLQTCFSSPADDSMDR
UniProt Q92598: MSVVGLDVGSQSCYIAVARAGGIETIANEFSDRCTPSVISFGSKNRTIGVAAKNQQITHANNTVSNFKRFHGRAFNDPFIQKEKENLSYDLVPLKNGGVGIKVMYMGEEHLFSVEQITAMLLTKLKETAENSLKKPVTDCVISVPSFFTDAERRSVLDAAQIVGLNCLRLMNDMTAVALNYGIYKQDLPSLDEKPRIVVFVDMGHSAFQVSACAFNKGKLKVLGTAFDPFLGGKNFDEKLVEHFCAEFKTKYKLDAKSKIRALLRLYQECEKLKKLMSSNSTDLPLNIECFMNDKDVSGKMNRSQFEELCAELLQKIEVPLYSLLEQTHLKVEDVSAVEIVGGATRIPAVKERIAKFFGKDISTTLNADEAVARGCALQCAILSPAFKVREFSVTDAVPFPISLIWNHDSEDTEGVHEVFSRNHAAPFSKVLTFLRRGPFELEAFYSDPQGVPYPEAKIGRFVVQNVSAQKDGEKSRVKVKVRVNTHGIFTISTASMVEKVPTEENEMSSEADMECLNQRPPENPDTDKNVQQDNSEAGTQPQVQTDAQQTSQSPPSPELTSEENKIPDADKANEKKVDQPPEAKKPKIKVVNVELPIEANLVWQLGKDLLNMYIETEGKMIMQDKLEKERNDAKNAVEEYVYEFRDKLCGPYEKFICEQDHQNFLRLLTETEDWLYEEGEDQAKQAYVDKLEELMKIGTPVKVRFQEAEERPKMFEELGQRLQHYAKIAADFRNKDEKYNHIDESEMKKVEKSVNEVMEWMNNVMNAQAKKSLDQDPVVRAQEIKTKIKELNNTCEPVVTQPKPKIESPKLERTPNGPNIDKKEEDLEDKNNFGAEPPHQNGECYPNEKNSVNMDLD
UniProt O95757: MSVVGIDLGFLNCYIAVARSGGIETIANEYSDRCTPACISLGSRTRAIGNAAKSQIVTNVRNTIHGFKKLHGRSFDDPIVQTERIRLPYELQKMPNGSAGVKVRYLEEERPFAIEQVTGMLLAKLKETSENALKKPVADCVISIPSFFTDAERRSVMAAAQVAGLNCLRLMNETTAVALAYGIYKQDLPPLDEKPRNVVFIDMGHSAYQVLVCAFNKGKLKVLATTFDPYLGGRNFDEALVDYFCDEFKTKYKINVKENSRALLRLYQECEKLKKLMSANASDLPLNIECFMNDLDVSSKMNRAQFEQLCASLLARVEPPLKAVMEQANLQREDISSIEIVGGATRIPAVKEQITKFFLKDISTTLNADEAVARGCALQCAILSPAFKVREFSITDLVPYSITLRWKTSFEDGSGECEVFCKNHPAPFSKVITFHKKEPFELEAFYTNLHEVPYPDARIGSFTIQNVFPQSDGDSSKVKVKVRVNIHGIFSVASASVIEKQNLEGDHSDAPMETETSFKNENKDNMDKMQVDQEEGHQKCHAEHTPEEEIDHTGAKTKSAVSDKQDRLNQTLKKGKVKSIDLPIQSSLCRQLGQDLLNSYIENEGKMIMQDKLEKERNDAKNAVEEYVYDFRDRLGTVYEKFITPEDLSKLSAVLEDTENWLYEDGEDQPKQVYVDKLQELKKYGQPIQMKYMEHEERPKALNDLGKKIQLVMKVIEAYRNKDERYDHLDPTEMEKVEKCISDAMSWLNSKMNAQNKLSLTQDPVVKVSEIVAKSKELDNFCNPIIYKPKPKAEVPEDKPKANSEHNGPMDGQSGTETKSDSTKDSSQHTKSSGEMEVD
UniProt Q13151: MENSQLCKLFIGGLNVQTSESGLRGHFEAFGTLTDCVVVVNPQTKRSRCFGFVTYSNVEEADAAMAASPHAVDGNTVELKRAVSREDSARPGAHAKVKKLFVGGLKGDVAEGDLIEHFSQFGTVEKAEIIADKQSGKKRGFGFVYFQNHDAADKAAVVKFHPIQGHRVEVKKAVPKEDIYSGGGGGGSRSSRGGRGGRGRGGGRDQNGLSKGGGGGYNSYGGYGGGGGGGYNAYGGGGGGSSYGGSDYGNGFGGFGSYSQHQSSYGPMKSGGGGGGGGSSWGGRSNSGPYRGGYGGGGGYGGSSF

Compound: CC1Cc2ccccc2N1C(=O)C1CCCN(C1)C(=O)CCl (mixture of isomers) [TRIM25 ligand 11 (diastereomer mixture)]
Experiment: probe-labelled cysteine peptide fold change vs DMSO (competition) (log2 fold change); higher = less target engagement (more negative = stronger competition)
Details: THP-1, incubation time: 4 h
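Also: competitive chemoproteomic profiling in live THP-1 cells with an iodoacetamide desthiobiotin (IA-DTB) probe, comparing probe-labelled peptide intensities in compound-treated cells against DMSO-treated controls.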

Row | Target | probe-labelled cysteine peptide fold change (10 µM) | probe-labelled cysteine peptide fold change (50 µM)
1 | HSPG2_P98160_3043_CLIHDGAAPISLEWK (UniProt P98160) | 0.0387 | 0.152
2 | HNRNPUL2_Q1KMD3_405_ALLPHVLCK (UniProt Q1KMD3) | -0.0475 | 0.00219
3 | HNRNPUL1_Q9BUJ2_532_AIVICPTDEDLK (UniProt Q9BUJ2) | -0.147 | -0.132
4 | HMGCS1_Q01581_86_NNLSYDCIGR (UniProt Q01581) | -0.153 | -0.103
5 | HNRNPU_Q00839_607_AVVVCPKDEDYK (UniProt Q00839) | -0.268 | -0.176
6 | HMGCR_P04035_708_SVVCEAVIPAK (UniProt P04035) | -0.0108 | 0.383
7 | HNRNPUL2_Q1KMD3_57_LQEALDAEMLEDEAGGGGAGPGGACK (UniProt Q1KMD3) | -0.11 | -0.35
8 | HSPD1_P10809_442_AAVEEGIVLGGGCALLR (UniProt P10809) | -0.0139 | -0.0338
9 | HPRT1_P00492_23_SPGVVISDDEPGYDLDLFCIPNHYAEDLER (UniProt P00492) | 0.0744 | -0.0996
10 | HNRNPUL2_Q1KMD3_602_CDYMDEVTYGELEK (UniProt Q1KMD3) | 0.074 | -0.194
11 | HNRNPU_Q00839_450_PLFPHVLCHNCAVEFNFGQK (UniProt Q00839) | 0.107 | 0.085
12 | HSPA4_P34932_140+146_KPVVDCVVSVPCFYTDAER (UniProt P34932) | 0.113 | 0.00257
13 | HNRNPH2_P55795_290_YGDGGSSFQSTTGHCVHMR (UniProt P55795) | 0.0276 | -0.211
14 | HSD17B12_Q53GQ0_166_MININILSVCK (UniProt Q53GQ0) | -0.0213 | -0.0637
15 | HSPA4_P34932_213_NVVFVDMGHSAYQVSVCAFNR (UniProt P34932) | 0.1 | 0.0909
16 | HPS3_Q969F9_647_QVPHILCSPSMK (UniProt Q969F9) | 0.000983 | -0.0869
17 | HNRNPA3_P51991_196_YHTINGHNCEVKK (UniProt P51991) | -0.179 | -0.163
18 | HNRNPF_P52597_267_DLSYCLSGMYDHR (UniProt P52597) | 0.0214 | -0.017
19 | HSD17B11_Q8NBQ5_94_VHTFVVDCSNREDIYSSAK (UniProt Q8NBQ5) | 0.0629 | -0.0602
20 | HSPA14_Q0VDF9_440_QHTLQAPGSISSVCLELYESDGK (UniProt Q0VDF9) | 0.0676 | -0.0323

Row | Target | probe-labelled cysteine peptide fold change (10 µM) | probe-labelled cysteine peptide fold change (50 µM)
21 | HSPBP1_Q9NZL4_310_ECREPELGLEELLR (UniProt Q9NZL4) | -0.0116 | -0.0253
22 | HNRNPU_Q00839_391_TCNCETEDYGEK (UniProt Q00839) | 0.439 | 0.074
23 | HSPBP1_Q9NZL4_348_LLQTCFSSPADDSMDR (UniProt Q9NZL4) | 0.0152 | -0.0187
24 | HSPA9_P38646_66_GAVVGIDLGTTNSCVAVMEGK (UniProt P38646) | 0.0277 | -0.133
25 | HSPA4_P34932_290_KLMSANASDLPLSIECFMNDVDVSGTMNR (UniProt P34932) | 0.132 | -0.31
26 | HP_P00738_340_SPVGVQPILNEHTFCAGMSK (UniProt P00738) | -0.0896 | -0.24
27 | HSPH1_Q92598_34_CTPSVISFGSK (UniProt Q92598) | -0.12 | -0.058
28 | HSPH1_Q92598_140_KPVTDCVISVPSFFTDAERR (UniProt Q92598) | -0.0644 | -0.0386
29 | HSP90AA4P_Q58FG1_178_DLIMDNCEELIPEYLNFIR (UniProt Q58FG1) | 0.182 | 0.348
30 | HNRNPUL2_Q1KMD3_518_DLLVQQASQCLSK (UniProt Q1KMD3) | 0.128 | -0.00731
31 | HSPA4L_O95757_34+38_CTPACISLGSR (UniProt O95757) | 0.00672 | 0.0153
32 | HSPH1_Q92598_796_ELNNTCEPVVTQPKPK (UniProt Q92598) | -0.444 | -0.534
33 | HNRNPA0_Q13151_36_GHFEAFGTLTDCVVVVNPQTK (UniProt Q13151) | -0.0152 | 0.0374
34 | HNRNPK_P61978_184+185_LFQECCPHSTDR (UniProt P61978) | -0.022 | -0.0896
35 | HSPD1_P10809_447_CIPALDSLTPANEDQK (UniProt P10809) | 0.0164 | -0.115
36 | HTATIP2_Q9BUP3_90_LDDYASAFQGHDVGFCCLGTTR (UniProt Q9BUP3) | 0.237 | 0.32
37 | HNRNPA3_P51991_85_GFGFVTYSCVEEVDAAMCARPHK (UniProt P51991) | -0.229 | -0.173
38 | HSPA2_P54652_18_GPAIGIDLGTTYSCVGVFQHGK (UniProt P54652) | -0.0169 | 0.188
39 | HP1BP3_Q5SSJ5_412_GFSGTFQLCFPYYPSPGVLFPK (UniProt Q5SSJ5) | -0.137 | -0.378
40 | HSPA4L_O95757_140_KPVADCVISIPSFFTDAER (UniProt O95757) | 0.0605 | 0.121
